Assays:
[1] = test system: system I cytochrome c biogenesis; experiment: Metalloprotoporphyrin IX addition, E. coli Δccm with pRGK333 (system I), pRGK332 and pHPEX2; assay type: cell-based; details: fluorescence, c4 immunoblot
Experimental: (§1) Overnight cultures of an E. coli Δccm strain (or E. coli ΔccmΔhemA) harboring either pRGK333 (system I) or pRGK348 (system II-chuA), pRGK332 (cytochrome c4:6×His), and pHPEX2 (Varnado and Goodwin, 2004) were diluted into fresh LB broth (containing the appropriate antibiotics and 8 μM hemin for the E. coli ΔccmΔhemA strain) and incubated with aeration at 37° C. until the OD600 was approximately 0.5. […] Arabinose (0.2%) was added after one hour and incubation continued for an additional three hours. Cells were harvested and soluble protein was extracted using B-PER (Feissner et al., 2006). […] Prior to heme stain and c4 immunoblot, the nitrocellulose blots were screened for fluorescence on an LAS-1000plus Luminescent Image Analyzer CCD camera system (Fujifilm; Tokyo, Japan).
(§2) Heme stains were performed as described (Feissner et al., 2003) using SuperSignal Femto chemiluminescent substrate (Pierce). Heme stain quantitation used LOLITA II (Low Light Test Array; raytestUSA; Wilmington, N.C.) for standardization of light intensity detection on an LAS1000plus Luminescent Image Analyzer CCD camera system. […] Chemiluminescence from heme stains and Western blots were detected using an LAS-1000plus Luminescent Image Analyzer CCD camera system (Fujifilm). Protein concentrations were determined using the BCA assay (Pierce) using BSA as a standard. […]

[2] = test system: system II cytochrome c biogenesis (H. pylori CcsBA); experiment: Metalloprotoporphyrin IX addition, E. coli Δccm with pRGK348 (system II-chuA) and pRGK332; assay type: cell-based; details: fluorescence, c4 immunoblot
Experimental: as §1, §2

## C=Cc1c2[n-]c(c1C)/C=c1\[n-]/c(c(C)c1C=C)=C\c1[n-]c(c(CCC(=O)O)c1C)C=c1[n-]/c(c(C)c1CCC(=O)O)=C\2.[Sn+4] [SnPPIX, tin (IV) protoporphyrin IX]
[1]
  incorporation into cytochrome c4:6×His by system I: not being incorporated
[2]
  incorporation into cytochrome c4:6×His by system II: not being incorporated

## C=CC1=C(C)c2cc3[n-]c(cc4[n-]c(cc5nc(cc1n2)C(C)=C5C=C)c(C)c4CCC(=O)O)c(CCC(=O)O)c3C.[Zn+2] [ZnPPIX, zinc (II) protoporphyrin IX]
[1]
  incorporation into cytochrome c4:6×His by system I: not incorporated
[2]
  incorporation into cytochrome c4:6×His by system II: not incorporated
